Screening data, single-dose tests

The values are deposited in ChEMBL (CHEMBL3988442, “University of Dundee, Small-Polar-MMV Screening Library” (2021)).

A: 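Phenotypic screen: M. tuberculosis growth, glucose 7H9 medium, 3 days; the read-out is not stated. Tested at 50 µM. Higher reads as more growth inhibition (inferred: compounds with an IC50 in retests scored well above the rest). Of about 69,000 compounds tested this way, about 760 (1.1%) reached 50% or more in at least one test.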
B: 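Growth of Mycobacterium tuberculosis over 4 days (cholesterol / DPPC medium with tyloxapol); the read-out is not stated. Compounds at 50 µM. Higher reads as more growth inhibition (inferred: compounds with an IC50 in retests scored well above the rest). Of about 69,000 compounds tested this way, about 370 (0.54%) reached 50% or more in at least one test.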

The filed quantity is “Percent Effect” (%).
The record does not define 0% and 100%; most values in the screen are far below 50% and negative numbers occur (in some assays of this library far below -100).
This is an unselected part of the compounds tested.
Two or more numbers in one place are separate tests of the same structure; such repeats can differ widely.

Cc1cccc(NCc2nc(C)ccc2O)c1 gave A: -13.11%; B: -5.119%.
Cc1ccc(-c2nc(CN3CCc4nn(C)c(=O)cc4C3)no2)cc1 gave A: 19.13%; B: -5.878%.
Cc1cccc(CN(C(=O)CS(C)(=O)=O)C(C)C)c1 gave A: -7.547%; B: -23.79%.
COc1cc(CN(C)C(=O)NCCC2CCCO2)ccc1SC (stereo unspecified) gave A: 10.74%; B: 5.372% & 2.992%.
CC(C)N1CC2(CCCN(c3ncc(Cl)cc3F)C2)CCC1=O (stereo unspecified) gave A: -2.46%; B: -10.3%.
[H][C@@]12CCCO[C@]1([H])[C@H](NS(C)(=O)=O)CN(Cc1cccc(C)n1)C2 gave A: 3.232%; B: -0.08631%.
CN1CCN(S(=O)(=O)c2cccc(F)c2)Cc2cccnc21.O=C(O)C(F)(F)F gave A: -11.51%; B: -29.5%.
O=C(O)C(F)(F)F.O=C(O)C(F)(F)F.[H][C@]12CCN(C(=O)C(C)C)CC[C@@]1([H])S(=O)(=O)CCN2Cc1cccnc1 gave A: 4.071%; B: -0.4363%.
Cc1nn(C)c(C)c1C(=O)N1CCOCC1CC(=O)c1ccco1 (stereo unspecified) gave A: -9.788% & 6.611%; B: -2.114%.
Cc1nn(C)c(C)c1C1CCCN1C(=O)CCNS(C)(=O)=O (stereo unspecified) gave A: -23.81%; B: -18.68%.
COCCNC(=O)N1CCN(C(C)C(=O)NC2CCCC2)CC1 (stereo unspecified) gave A: 3.422% & 2.352%; B: 1.178%.
COC(=O)c1cccc(C2CNCCN2C(C)=O)c1 (stereo unspecified) gave A: -5.832%; B: -29.45% & -1.587%.
Cc1nc(-c2nnc(SCC(=O)O)n2C(C)c2ccccc2)co1 (stereo unspecified) gave A: 0.1253% & 6.557%; B: -8.404%.
O=C(O)C(F)(F)F.[H][C@@]12C[C@H](C(=O)N3CCCC3)[C@@]([H])(CN(CCC(C)C)C1)O2 gave A: 9.127%; B: 0.05836%.
Cc1nnc(NC(=O)C(C)n2ncc(Br)c2C)s1 (stereo unspecified) gave A: -5.01% & -9.357%; B: -26.67%.
CCCc1n[nH]c(C2CN(Cc3nnc(C4CCC4)o3)CCO2)n1 (stereo unspecified) gave A: -18.51%; B: -1.243%.
O=C(COc1ccccc1C(F)(F)F)NCCNC(=O)c1ccccc1 gave A: -28.34%; B: -168.4% & 16.52%.
OCCC1CN(c2ncnc3[nH]cnc23)CCN1Cc1ccccc1 (stereo unspecified) gave A: 26.43%; B: 3.41%.
COc1ccnc(N2CCN(C(=O)c3ccn(C)c(=O)c3)CC2)n1 gave A: -0.923% & -0.9916%; B: -9.849%.
CC(=O)N(C)Cc1ccccc1NC(=O)N(C)CCc1cccs1 gave A: -9.134%; B: 2.613%.

For reference, 2 entries once more:

structure,A,B
COc1ccnc(N2CCN(C(=O)c3ccn(C)c(=O)c3)CC2)n1,-0.923 & -0.9916,-9.849
O=C(O)C(F)(F)F.[H][C@@]12C[C@H](C(=O)N3CCCC3)[C@@]([H])(CN(CCC(C)C)C1)O2,9.127,0.05836